Here are results for one molecule from publication PMC2868067 (Molecular cancer therapeutics, 2010).

The structures appear in SMILES notation.

The assay concerns kinases in the Src family. To be noted: read-out: apparent IC50, Srctide; multiplexed, treated K-562 lysates (Figure 6A).

Regarding `Cc1ccc(NC(=O)c2ccc(CN3CCN(C)CC3)cc2)cc1Nc1nccc(-c2cccnc2)n1` [imatinib], the IC50 – broadly, the point on the concentration scale where inhibition reaches its midpoint – came out at 5.6 µM.
